Results deposited as PubChem BioAssay AID504804 (Drosophila RNAi Screening Center, 2011).

Assay: 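Fly genes whose loss lessens doxorubicin-driven cell death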 (primary screen)
Cell system: Drosophila Kc cells
Reagents: long dsRNA against Drosophila genes, 0.5 µg dsRNA per well
Time to read-out: 96 h (48 h knock-down, then 48 h drug)
Conditions: doxorubicin 5 µg/ml for 48 h, added 48 h after dsRNA
Measured: 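Luminescent ATP counts per replicate, not normalised, reflecting viable cells after 48 h dsRNA knock-down followed by 48 h of 5 µg/ml doxorubicin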
Direction: raw ATP luminescence: higher = more viable cells, protection from doxorubicin
Hit rule: 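Active when both duplicate wells lie at least 2 SD above the plate mean and protection is confirmed by rescreening and independent dsRNAs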
The screen tested about 19,000 reagents; shown is a random part of those that have a named target and a result. In the full data, 47 (0.25%) were called active. 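Signals are raw, not normalised; exact z-scores behind calls not deposited; actives needed confirmation, so some wells reaching 2 SD are inactive.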 Entries without a mark were called inactive. A plus sign joins genes that one reagent is predicted to hit.

{"predicted target": "CG33299", "dsRNA": "DRSC01085", "raw ATP luminescence, replicate 1": 2.55e5, "raw ATP luminescence, replicate 2": 2.53e5}
{"predicted target": "Prx1", "dsRNA": "DRSC10741", "raw ATP luminescence, replicate 1": 62477, "raw ATP luminescence, replicate 2": 51797}
{"predicted target": "CG3107", "dsRNA": "DRSC04888", "raw ATP luminescence, replicate 1": 63533, "raw ATP luminescence, replicate 2": 73657}
{"predicted target": "CG4701", "dsRNA": "DRSC01952", "raw ATP luminescence, replicate 1": 52133, "raw ATP luminescence, replicate 2": 83460}
{"predicted target": "aux", "dsRNA": "DRSC12161", "raw ATP luminescence, replicate 1": 24757, "raw ATP luminescence, replicate 2": 23273}
{"predicted target": "MME1", "dsRNA": "DRSC02714", "raw ATP luminescence, replicate 1": 1.17e5, "raw ATP luminescence, replicate 2": 67893}
{"predicted target": "CG7298", "dsRNA": "DRSC10802", "raw ATP luminescence, replicate 1": 44287, "raw ATP luminescence, replicate 2": 20490}
{"predicted target": "Prosbeta5R1", "dsRNA": "DRSC04581", "raw ATP luminescence, replicate 1": 19030, "raw ATP luminescence, replicate 2": 40373}
{"predicted target": "CG30047", "dsRNA": "DRSC05340", "raw ATP luminescence, replicate 1": 86190, "raw ATP luminescence, replicate 2": 99057}
{"predicted target": "Surf6", "dsRNA": "DRSC15588", "raw ATP luminescence, replicate 1": 38370, "raw ATP luminescence, replicate 2": 38443}
{"predicted target": "CG4020", "dsRNA": "DRSC18337", "raw ATP luminescence, replicate 1": 47380, "raw ATP luminescence, replicate 2": 42470}
{"predicted target": "GlcT", "dsRNA": "DRSC04525", "raw ATP luminescence, replicate 1": 76340, "raw ATP luminescence, replicate 2": 58453}
{"predicted target": "ATPsynB", "dsRNA": "DRSC09659", "raw ATP luminescence, replicate 1": 49660, "raw ATP luminescence, replicate 2": 39900}
{"predicted target": "CG31121", "dsRNA": "DRSC15361", "raw ATP luminescence, replicate 1": 54760, "raw ATP luminescence, replicate 2": 62550}
{"predicted target": "CG31121", "dsRNA": "DRSC15363", "raw ATP luminescence, replicate 1": 53420, "raw ATP luminescence, replicate 2": 60080}
{"predicted target": "cysu", "dsRNA": "DRSC15902", "raw ATP luminescence, replicate 1": 70890, "raw ATP luminescence, replicate 2": 55460}
{"predicted target": "Vha68-3", "dsRNA": "DRSC02809", "raw ATP luminescence, replicate 1": 51810, "raw ATP luminescence, replicate 2": 61300}
{"predicted target": "CG5011", "dsRNA": "DRSC00039", "raw ATP luminescence, replicate 1": 2.71e5, "raw ATP luminescence, replicate 2": 2.96e5}
{"predicted target": "CG5011", "dsRNA": "DRSC00674", "raw ATP luminescence, replicate 1": 92657, "raw ATP luminescence, replicate 2": 57937}
{"predicted target": "Tom70", "dsRNA": "DRSC02990", "raw ATP luminescence, replicate 1": 56720, "raw ATP luminescence, replicate 2": 66667}
{"predicted target": "CG5402", "dsRNA": "DRSC15792", "raw ATP luminescence, replicate 1": 37470, "raw ATP luminescence, replicate 2": 55750}
{"predicted target": "CG15927", "dsRNA": "DRSC19742", "raw ATP luminescence, replicate 1": 3.15e5, "raw ATP luminescence, replicate 2": 2.90e5}
{"predicted target": "CG17658", "dsRNA": "DRSC04292", "raw ATP luminescence, replicate 1": 42280, "raw ATP luminescence, replicate 2": 51047}
{"predicted target": "CG12481", "dsRNA": "DRSC19461", "raw ATP luminescence, replicate 1": 3.49e5, "raw ATP luminescence, replicate 2": 3.16e5}
{"predicted target": "Irp-1B", "dsRNA": "DRSC16720", "raw ATP luminescence, replicate 1": 60583, "raw ATP luminescence, replicate 2": 56747}
{"predicted target": "Gnf1", "dsRNA": "DRSC12351", "raw ATP luminescence, replicate 1": 54713, "raw ATP luminescence, replicate 2": 60840}
{"predicted target": "CG18745", "dsRNA": "DRSC15382", "raw ATP luminescence, replicate 1": 54653, "raw ATP luminescence, replicate 2": 48460}
{"predicted target": "CG7029", "dsRNA": "DRSC16177", "raw ATP luminescence, replicate 1": 47540, "raw ATP luminescence, replicate 2": 37650}
{"predicted target": "CG2104", "dsRNA": "DRSC12304", "raw ATP luminescence, replicate 1": 71930, "raw ATP luminescence, replicate 2": 61180}
{"predicted target": "Ehbp1", "dsRNA": "DRSC06561", "raw ATP luminescence, replicate 1": 51710, "raw ATP luminescence, replicate 2": 64917}
{"predicted target": "alphaCOP", "dsRNA": "DRSC08706", "raw ATP luminescence, replicate 1": 60260, "raw ATP luminescence, replicate 2": 51507}
{"predicted target": "Or59a", "dsRNA": "DRSC04631", "raw ATP luminescence, replicate 1": 50333, "raw ATP luminescence, replicate 2": 57573}
{"predicted target": "His3:CG33818 + His3:CG33857 + His3:CG33806 + 20 more", "dsRNA": "DRSC21267", "raw ATP luminescence, replicate 1": 1.32e5, "raw ATP luminescence, replicate 2": 1.07e5}
{"predicted target": "Cfp1", "dsRNA": "DRSC18128", "raw ATP luminescence, replicate 1": 3.33e5, "raw ATP luminescence, replicate 2": 2.81e5}
{"predicted target": "CG5347", "dsRNA": "DRSC19942", "raw ATP luminescence, replicate 1": 4.16e5, "raw ATP luminescence, replicate 2": 3.60e5}
{"predicted target": "CG7987", "dsRNA": "DRSC16357", "raw ATP luminescence, replicate 1": 93667, "raw ATP luminescence, replicate 2": 37137}

Ordered by “raw ATP luminescence, replicate 2” (descending): some entries from above
{"predicted target": "CG12481", "dsRNA": "DRSC19461", "raw ATP luminescence, replicate 1": 3.49e5, "raw ATP luminescence, replicate 2": 3.16e5}
{"predicted target": "CG15927", "dsRNA": "DRSC19742", "raw ATP luminescence, replicate 1": 3.15e5, "raw ATP luminescence, replicate 2": 2.90e5}
{"predicted target": "Tom70", "dsRNA": "DRSC02990", "raw ATP luminescence, replicate 1": 56720, "raw ATP luminescence, replicate 2": 66667}
{"predicted target": "Irp-1B", "dsRNA": "DRSC16720", "raw ATP luminescence, replicate 1": 60583, "raw ATP luminescence, replicate 2": 56747}
{"predicted target": "CG5402", "dsRNA": "DRSC15792", "raw ATP luminescence, replicate 1": 37470, "raw ATP luminescence, replicate 2": 55750}
{"predicted target": "CG17658", "dsRNA": "DRSC04292", "raw ATP luminescence, replicate 1": 42280, "raw ATP luminescence, replicate 2": 51047}
